In publication PMC5464670:
No constants are given. Whether binding was seen depends on the method and setting.

Molecular target: Plasmodium falciparum profilin, wild type (Plasmodium falciparum) (UniProt Q8I2J4)
Test: SEC; size-exclusion chromatogram of the purified wild-type and mutant profilins (S7A Fig); both purified

- binding: no binding
B1: Plasmodium falciparum profilin, wild type (protein, UniProt Q8I2J4 1-171)
chain: MAEEYSWDSYLNDRLLATNQVSGAGLASEEDGVVYACVAQGEESDPNFDKWSLFYKEDYDIEVEDENGTKTTKTINEGQTILVVFNEGYAPDGVWLGGTKYQFINIERDLEFEGYNFDVATCAKLKGGLHLVKVPGGNILVVLYDEEKEQDRGNSKIAALTFAKELAESSQ
